# Library screening results

Data taken from ChEMBL document CHEMBL3988442, “University of Dundee, Small-Polar-MMV Screening Library” (2021).

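Whole-cell assay for inhibitors of Mycobacterium tuberculosis growth, labelled Cornell in the record; the read-out is not stated. The concentration is filed as 10 mM, unlikely as a test dose, so the dose is not known. The record gives no direction; compounds strong in two other growth screens of this library score well above the rest, so higher reads as stronger inhibition. Size under these conditions: about 53,000 compounds, about 900 of them at 50% or above in at least one test.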

Each number is a percent effect as filed. How 0% and 100% were set is not recorded. Most values in the screen are low, and negative values occur. This is an unselected part of the compounds tested.

| Compound | effect |
|---|---|
| `CCn1cnnc1C1CCN(C(=O)c2cc(C)n(CC)c2C)CC1` | -55.41% |
| `CCC(C)(C)NC(=O)c1ncn2c1CN(C)S(=O)(=O)c1ccccc1-2.O=C(O)C(F)(F)F` | -12.82% |
| `COCCN(Cc1ccccn1)C(=O)CC1OCCc2sccc21` (centres undefined) | -18.11% |
| `CCN1CCOCC12CCN(c1ccc(C#N)cc1)CC2.O=C(O)C(F)(F)F` | 44.83% |
| `Cc1cc(C(=O)NCCn2nc3ccccn3c2=O)[nH]n1` | 8.819% |
| `COc1cc(C2CC(=O)Oc3cc(C)[nH]c(=O)c32)ccc1O` (centres undefined) | 15.79% |
| `Cc1nn(C)cc1NC(=O)CC1CCN(C(=O)Cc2ccccc2)CC1` | -9.652% |
| `CC(=O)N1CCCC(c2ccc(CO)c(-c3c(C)noc3C)n2)C1` (centres undefined) | -41.27% |
| `CC(C)NC1CCc2c(ccc(=O)n2CCN2CCOCC2)C1.O=C(O)C(F)(F)F.O=C(O)C(F)(F)F` (centres undefined) | 5.06% |
| `Cc1cnn(C2CCCN(C(=O)c3sccc3C#N)C2)c1` (centres undefined) | -7.846% |
| `Cc1cc(C)nc(C2(C)CCCN2CCO)n1` (centres undefined) | 1.268% |
| `O=S1(=O)NC(c2ccnc(N3CCOCC3)n2)=Nc2ccccc21` | 3.643% |
| `CCCN1CCc2nc(N3CCOCC3)nc(NC(C)C)c2C1` | 29.26% |
| `CN1CCN(CCOc2ccc(NC(=O)c3ccncc3)cc2)CC1` | -42.21% |
| `O=C(COCC1CC1)N1CCN(C(=O)Cc2ccccn2)CC1` | 2.291% |
| `[H][C@]12CC[C@@]3(N=C(CC)NC3=O)[C@@]1([H])CN(C(=O)NCc1cccc(F)c1)C2` | 18.91% |
| `Cc1ccc2cc(CN(C)Cc3ccncn3)c(=O)[nH]c2c1` | 1.088% |
| `CCn1c(Cn2cncn2)nnc1C1CCN(CCN)CC1` | -27.82% |
| `Cc1noc(-c2ccnc(Oc3ccc(CN4CCCC4)cc3F)c2)n1` | -39.24% |
| `CC(=O)Nc1nc(C(=O)N2CCCC(n3ccnc3)C2)cs1` (centres undefined) | 16.31% |
| `Cc1cnc(N2CCC3(CCCN(c4ncc(F)cn4)C3)C2)nc1` (centres undefined) | 17.78% |
| `O=C(CCN1CCc2ccccc21)N1C[C@@H](O)[C@H](N2CCCC2)C1` | -28.49% |
| `CC(C)NC1CCCc2nc(-c3ccccc3)ncc21` (centres undefined) | -20.48% |
| `OC[C@H]1CCCN1c1nccc(-c2c[nH]nc2C2CCCCC2)n1` | 4.191% |
| `[H][C@]12CC[C@@]3(N=C(CC)N(C)C3=O)[C@@]1([H])CN(S(=O)(=O)CC(C)C)C2` | 20.04% |
| `Cc1ccc(F)cc1CC(=O)N(CCN1CCOCC1)Cc1ccco1` | 22.67% |
| `CC(C)(C)OC(=O)N[C@@H]1C[C@@H](O)CN(C(=O)c2cccc(F)c2)C[C@H]1O` | 19.03% |
| `Cc1nc(-c2ccc(Cl)s2)sc1C(=O)O` | -36.68% |
| `CC(O)(CCc1ccccc1)CNC(=O)c1cccs1` (centres undefined) | -5.973% |
| `CN(C)CC1(O)CCN(Cc2cnc3c(-c4ccccc4)cnn3c2)C1` (centres undefined) | 15.29% |
| `CO[C@H]1C[C@@H](O)C12CCN(C(=O)CCCOc1ccccc1)CC2` | -10.39% |
| `CN1CCCN(C(=O)c2nc3c(o2)CN(S(C)(=O)=O)C3)CC1` | 0.8219% |
| `CC(NC(=O)COc1ccc(F)cc1)c1nnc2n1CCCCC2` (centres undefined) | 3.596% |
| `[H][C@]12CCN(C(=O)NC(C)C)CC[C@@]1([H])S(=O)(=O)N(Cc1ccccc1)C2` | -15.03% |
| `O=C(c1ccc2nncn2c1)N1CCCCC1Cn1cccn1` (centres undefined) | -35.54% |
| `Cc1cc(CNC2(c3ccc(Cl)cc3)CC2)no1` | 16.56% |
| `Cc1cccc(C)c1Nc1noc2c1CN(C(=O)c1cn(C)cn1)CC2` | 35.81% |
| `CCc1ncc2c(n1)CN(C(C)C(=O)Nc1ccc(Cl)cn1)CC2` (centres undefined) | -5.13% |
| `CC(c1cccc(-c2ncccc2C#N)c1)N(C)C` (centres undefined) | 5.239% |
| `OCCOc1ccccc1CN1CCCC(O)(CO)C1` (centres undefined) | -15.95% |
| `CCc1nnc(Nc2cccc(C3CCN(C(=O)CNC)CC3)n2)s1` | -32.41% |
| `Cc1nc(C2CCCN2C(=O)c2ccc(=O)n(C)n2)no1` (centres undefined) | -42.93% |
| `Cn1cnc2c1CCN(CC(=O)N(Cc1ccccc1F)C1CC1)C2` | 20.76% |
| `O=C(C1CCCCO1)N1CCc2ncnc(NCCO)c2CC1` (centres undefined) | -1.541% |
| `O=C(O)C1CCN(C(=O)CCn2ccc3cc(Br)ccc32)CC1` | 14.17% |
| `Cc1nc(C)n(CC2CN(Cc3cccc4ccccc34)CCO2)n1` (centres undefined) | 5.103% |
| `Cc1cc(C)n(CCC(=O)N2CCCC(n3nc(C)nc3C)C2)n1` (centres undefined) | -7.551% |
| `COc1ccc(C(=O)N2CC(=O)N(C3CCC3)CC(O)C2)c(OC)c1` (centres undefined) | 8.987% |
| `O=S1(=O)CCN2C(=N1)Oc1ccc(S(=O)(=O)N3CCCC3)cc12` | 2.356% |
| `CCc1noc(C(C)N2CCN(c3ccc(C#N)cc3F)CC2)n1` (centres undefined) | 7.721% |
| `CCCc1cc(C(=O)NCCCn2nnc3ccccc32)no1` | 34.21% |
| `O=C(c1cccc2c1OCO2)N1CCCC(n2ccnc2)C1` (centres undefined) | -4.013% |
| `Cc1nc(-c2ccccc2)sc1CSCCS(C)(=O)=O` | 14.71% |
| `N#CCCN(C(=O)CN1CCCC1c1ccccc1Cl)c1ccccc1` (centres undefined) | 0.2366% |
| `Cc1ccc(C)c(C(NC(=O)C2CC2)c2cccnc2)c1` (centres undefined) | 2.536% |
| `CC(C)OC(=O)N1CCCC(c2nccn2Cc2ccncc2)C1` (centres undefined) | -3.318% |
| `CCC(NC(=O)C1CCN(C(=O)C2CC2)CC1)c1cn2cccnc2n1` (centres undefined) | -65.12% |
| `CS(=O)(=O)NCc1cc2n(n1)CCCN(Cc1cccc(C#N)c1)C2` | 28.56% |
| `COC1CCN(c2ccc(NC(=O)Cn3cccn3)cc2)CC1` | 13.05% |
| `CC(C)c1noc(C(C)N2CCN(Cc3ccco3)CC2)n1` (centres undefined) | 15.21% |
| `CC(O)CN1CCc2onc(-c3ccccc3F)c2C1` (centres undefined) | 10.82% |
| `CCOC(=O)N1CCN(C(=O)CCn2ccc3c(OC)cccc32)CC1` | 8.893% |
| `COc1ccc(CN2CCOC3(CCCN(c4cnccn4)C3)C2)cc1.O=C(O)C(F)(F)F.O=C(O)C(F)(F)F` (centres undefined) | 27.28% |
| `Cc1ncsc1CN1CCOC(C)(C(N)=O)C1` (centres undefined) | -22.11% |
| `CN(CCOc1ccc(F)cc1)S(=O)(=O)N1CCOCC1` | -2.86% |
| `CN(CC(O)CO)C(=O)c1coc(COc2cccc(F)c2)n1` (centres undefined) | -24.67% |
| `CCc1nnc2n1CCN(C(=O)c1ccc3c(c1)nnn3C)C2` | 22.1% |
| `CC(C)N1CC[C@H](c2nnc(Cc3c[nH]c4ccccc34)o2)C1` | 10.19% |
| `COCCN(Cc1ccco1)Cc1nc(-c2ccccc2)no1` | -9.832% |
| `Cc1noc(C(C)N2CCN(CCC(=O)N3CCOCC3)CC2)n1` (centres undefined) | 30.06% |
| `Cc1cccc(C(C(=O)N2CC(c3ccncc3)C2)N(C)C)c1` (centres undefined) | 11.44% |
| `CN(C)c1ncc2c(n1)N(C)CCN(CC1CC1)C2=O` | 7.899% |
| `CC(=O)NCC(=O)NC1CCc2nccn2C1` (centres undefined) | -67.95% |
| `CCOC1COC2(CCN(Cc3cccc(C)n3)CC2)C1.O=C(O)C(F)(F)F` (centres undefined) | 6.775% |
| `Cc1cccc(OCCCNC(=O)NC(C)c2nncn2C)c1` (centres undefined) | 6.174% |
| `Cc1nc(N2CCCC2)nc2c1CCN(C(=O)C1CCCCC1)CC2` | 30.81% |
| `O=C(c1cnc(O)c(Cl)c1)N1CCCC(c2nccs2)C1` (centres undefined) | -10.54% |
| `CCN(Cc1cnn(C)c1)C[C@H]1CC[C@@H](Cc2cccc(C#N)c2)O1` | 9.328% |
| `Cc1ccc2c(n1)N(Cc1cccnc1)CCN(C(=O)C1CC=CC1)C2` | 30.61% |
| `O=C(CC1CCCC1)NCCS(=O)(=O)N1CCN(c2ncccn2)CC1` | -10.42% |
| `COc1ccc(S(=O)(=O)N[C@H]2CN(C(C)=O)C[C@@H]2C(C)C)cc1F` | 4.475% |
| `CCOc1c(CNCCCn2ccnc2)cc(Cl)cc1OC.Cl.Cl` | 26.78% |
| `O=C(O)C(F)(F)F.O=C(O)C(F)(F)F.c1ccc(O[C@@H]2CO[C@@]3(CCCN(CC4CCOCC4)C3)C2)nc1` | 28.21% |
| `Cl.Cl.[H][C@@]12CN(CCc3ccccc3)C[C@]1([H])C2CN` (some centres undefined) | -4.59% |
| `CCc1nc(C2CCCN(c3nccc(C)n3)C2)no1` (centres undefined) | 4.963% |

Repeated from the top, 5 entries:

* CCn1cnnc1C1CCN(C(=O)c2cc(C)n(CC)c2C)CC1 | -55.41%
* CCC(C)(C)NC(=O)c1ncn2c1CN(C)S(=O)(=O)c1ccccc1-2.O=C(O)C(F)(F)F | -12.82%
* COCCN(Cc1ccccn1)C(=O)CC1OCCc2sccc21 (centres undefined) | -18.11%
* CCN1CCOCC12CCN(c1ccc(C#N)cc1)CC2.O=C(O)C(F)(F)F | 44.83%
* Cc1cc(C(=O)NCCn2nc3ccccn3c2=O)[nH]n1 | 8.819%